# Publication PMC8584237, “Helicobacter pylori Neutrophil-Activating Protein Directly Interacts with and Activates Toll-like Receptor 2 to Induce the Secretion of Interleukin-8 from Neutrophils and ATRA-Induced Differentiated HL-60 Cells” (International Journal of Molecular Sciences, 2021)
# Protein sequences, listed by entry. Tags and fused reporters are not part of them. Residues count along the entry.
# UniProt P43313: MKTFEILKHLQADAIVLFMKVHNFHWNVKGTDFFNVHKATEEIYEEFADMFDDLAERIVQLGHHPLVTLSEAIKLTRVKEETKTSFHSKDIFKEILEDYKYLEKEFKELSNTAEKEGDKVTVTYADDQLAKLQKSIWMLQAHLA
# UniProt O00206, residues 24-631: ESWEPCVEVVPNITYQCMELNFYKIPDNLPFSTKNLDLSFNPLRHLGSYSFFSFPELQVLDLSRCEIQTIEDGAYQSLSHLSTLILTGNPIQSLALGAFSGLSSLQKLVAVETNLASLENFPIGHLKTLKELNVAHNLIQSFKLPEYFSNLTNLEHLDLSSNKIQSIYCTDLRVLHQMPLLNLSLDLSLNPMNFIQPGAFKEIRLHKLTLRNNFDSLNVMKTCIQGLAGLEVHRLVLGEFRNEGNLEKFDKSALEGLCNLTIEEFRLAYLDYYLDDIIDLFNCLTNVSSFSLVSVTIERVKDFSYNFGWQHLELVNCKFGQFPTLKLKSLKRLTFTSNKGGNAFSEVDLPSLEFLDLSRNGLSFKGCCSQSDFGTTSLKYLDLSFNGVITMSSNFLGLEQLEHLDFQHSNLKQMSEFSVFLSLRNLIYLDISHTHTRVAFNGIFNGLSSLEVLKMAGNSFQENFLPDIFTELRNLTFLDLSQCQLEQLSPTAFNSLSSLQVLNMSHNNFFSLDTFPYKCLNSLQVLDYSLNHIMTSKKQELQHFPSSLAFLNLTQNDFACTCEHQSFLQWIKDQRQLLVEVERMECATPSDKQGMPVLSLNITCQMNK
# No constants are given. Whether binding was seen depends on the method and setting.
# Target: Helicobacter pylori neutrophil-activating protein (H. pylori strain 26695) (UniProt P43313)
# Assay: ELISA; ELISA-based solid-phase binding assay: 0.05 μg HP-NAP coated on MaxiSorp wells (carbonate-bicarbonate buffer pH 9.6, 4 °C overnight), blocked with 1% BSA; TLR2-10xHis or TLR4-10xHis added at 0.078125-2.5 μg in 100 µL PBS-T with 1% BSA, room temperature 2 h; detected with anti-6x His tag antibody, OD 450 nm; both purified
substance,measurement,value
"Recombinant human TLR4 protein Glu24-Lys631, with a C-terminal 10-His tag (from UniProt O00206 24-631) (receptor)",binding,no binding (tested: up to 2.5 μg)
